# Reference: the supplement of paper PMC10689618
# This is one part of the list. Repeats are few or missing, and single values can be far off.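 Primary human fetal astrocytes engulfed labelled rat cortical synaptosomes, measured as a red/green ratio corrected for calcein live-cell signal and scaled to the plate median. Toxicity meant calcein falling over 30%; decreased phagocytosis meant below 70% of median above 5 µM.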
# Assays:
# [1] = tested on: Human fetal astrocytes; test: loss of total cells relative to no-compound high-control median (toxicity); higher = more toxic (fewer cells); details: 24 h
# [2] = tested on: Human fetal astrocytes; test: synaptosome phagocytosis (pHrodo/calcein intensity ratio) relative to plate median of data wells; higher = more phagocytosis; details: 24 h
Compound,loss of total cells ([1]; 1.39 µM),loss of total cells ([1]; 2.78 µM),loss of total cells ([1]; 5.56 µM),loss of total cells ([1]; 11.11 µM),loss of total cells ([1]; 22.22 µM),synaptosome phagocytosis ([2]; 1.39 µM),synaptosome phagocytosis ([2]; 2.78 µM),synaptosome phagocytosis ([2]; 5.56 µM),synaptosome phagocytosis ([2]; 11.11 µM),synaptosome phagocytosis ([2]; 22.22 µM)
CC(=O)O[C@H]1[C@H]2[C@@H](OC(=O)Cc3ccccc3)[C@@H](C)C[C@]2(OC(C)=O)C(=O)/C(C)=C/[C@@H]2[C@H](CC[C@@]13CO3)C2(C)C,-26.2%,-19.9%,-2.9%,18.9%,3%,97.7%,112%,116%,155%,83.9%
COc1cc([C@@H]2c3cc4c(cc3[C@H](O)[C@H]3COC(=O)[C@@H]23)OCO4)cc(OC)c1OC,-0.8%,6.9%,3.7%,9.5%,11.1%,106%,72.7%,93.8%,75.1%,116%
CCC(N)C(O)c1ccc(O)c(O)c1 (stereo not given),-12.9%,24.6%,-4.3%,52.8%,29%,84.3%,107%,73%,141%,113%
OC[C@@H]1CCCN2CCCC[C@H]12,-13.1%,-11.9%,2.2%,8.8%,7.4%,117%,116%,89.5%,95.9%,114%
O=[N+]([O-])O[C@H]1CO[C@H]2[C@@H]1OC[C@H]2O[N+](=O)[O-],25.2%,10.5%,3.5%,0.3%,2.7%,37.4%,39.3%,42.7%,32.9%,36%
NC(=O)c1cc([N+](=O)[O-])cc([N+](=O)[O-])c1,7.4%,-13.2%,-7%,3.7%,-24.6%,90.8%,56.2%,121%,109%,86%
CCCC(C)C1(CC)C(=O)NC(=S)NC1=O (stereo not given),-9.1%,-15.5%,7.5%,-7.8%,-14.2%,120%,105%,100%,82.6%,114%
C=CCC1(C(C)CCC)C(=O)NC(=S)NC1=O (stereo not given),-15.6%,13.3%,-19.1%,13.5%,-6.3%,91.4%,139%,85.9%,92.3%,105%
CC(=O)CC1CCCCN1 (stereo not given),-18%,-11.2%,-14.7%,5.4%,6.7%,102%,90.9%,91.4%,69.4%,118%
COC(=O)[C@@H]1C[C@H](OC(C)=O)C(=O)[C@H]2[C@@]1(C)CC[C@H]1C(=O)O[C@H](c3ccoc3)C[C@]21C,2.5%,6.1%,-13.9%,11.5%,-0.7%,93.8%,127%,101%,88.6%,87.9%
N#Cc1c(Cl)c(Cl)c(Cl)c(C#N)c1Cl,73.8%,78.3%,87.9%,87.2%,77.8%,0%,0%,0%,0%,0%
COc1cc2c(cc1O)CCN[C@@H]2C,3.3%,14.1%,8.8%,20.3%,8.1%,137%,105%,110%,129%,86.1%
C=C[C@H]1CN2CC[C@H]1C[C@H]2[C@H](O)c1ccnc2ccccc12,6.2%,5.1%,-12.5%,-4.3%,9.4%,126%,101%,82.7%,91.4%,111%
CC(=O)O[C@@H]1CC[C@@]2(C)[C@@H](CC[C@@H]3[C@@H]2CC[C@]2(C)C(=O)CC[C@@H]32)C1,-7.6%,-2.7%,40.5%,-13.5%,39.6%,106%,121%,142%,93.2%,182%
CCN1C[C@]2(COC)[C@H](O)C[C@H](OC)[C@@]34[C@@H]5C[C@@]6(O)[C@H](OC(=O)c7ccccc7)[C@@H]5[C@@](OC(C)=O)([C@@H]([C@H](OC)[C@H]23)[C@@H]14)[C@@H](O)[C@@H]6OC,8%,-8.5%,-12.5%,13.5%,5.8%,87.3%,99%,78.2%,94.1%,148%
CC(=O)[C@H]1CC[C@H]2[C@@H]3CC[C@H]4C[C@H](O)CC[C@]4(C)[C@H]3CC[C@]12C,-22.1%,-0.7%,27.5%,9%,7%,94.2%,93.5%,113%,100%,108%
CNc1ccccc1C(=O)O,-27.9%,-17%,0.7%,10.8%,17.8%,100%,109%,96.8%,123%,131%
CN[C@@H]1[C@@H](O)[C@@H](O[C@@H]2[C@@H](O)[C@H](O[C@H]3O[C@H]([C@@H](C)O)[C@@H](O)[C@H](O)[C@H]3N)[C@@H](N)C[C@H]2N)OC[C@]1(C)O,-9.8%,-1.8%,-2.9%,5.4%,9.6%,119%,83.2%,89.2%,82.6%,70%
C=CCSSCC=C,-4.1%,1.8%,4.4%,22.3%,7.4%,109%,101%,102%,109%,90.7%
O=c1ccc2cc(O[C@@H]3O[C@H](CO)[C@@H](O)[C@H](O)[C@H]3O)c(O)cc2o1,12.6%,4%,21%,-12.1%,10.6%,115%,92.4%,121%,97%,122%

# Part of the list above, with bars between the fields.
Compound | loss of total cells ([1]; 1.39 µM) | loss of total cells ([1]; 2.78 µM) | loss of total cells ([1]; 5.56 µM) | loss of total cells ([1]; 11.11 µM) | loss of total cells ([1]; 22.22 µM) | synaptosome phagocytosis ([2]; 1.39 µM) | synaptosome phagocytosis ([2]; 2.78 µM) | synaptosome phagocytosis ([2]; 5.56 µM) | synaptosome phagocytosis ([2]; 11.11 µM) | synaptosome phagocytosis ([2]; 22.22 µM)
CC(=O)[C@H]1CC[C@H]2[C@@H]3CC[C@H]4C[C@H](O)CC[C@]4(C)[C@H]3CC[C@]12C | -22.1% | -0.7% | 27.5% | 9% | 7% | 94.2% | 93.5% | 113% | 100% | 108%
CNc1ccccc1C(=O)O | -27.9% | -17% | 0.7% | 10.8% | 17.8% | 100% | 109% | 96.8% | 123% | 131%

# (cont.)

Compound,loss of total cells ([1]; 1.39 µM),loss of total cells ([1]; 2.78 µM),loss of total cells ([1]; 5.56 µM),loss of total cells ([1]; 11.11 µM),loss of total cells ([1]; 22.22 µM),synaptosome phagocytosis ([2]; 1.39 µM),synaptosome phagocytosis ([2]; 2.78 µM),synaptosome phagocytosis ([2]; 5.56 µM),synaptosome phagocytosis ([2]; 11.11 µM),synaptosome phagocytosis ([2]; 22.22 µM)
CC(C)=CCCC1(C)C=Cc2c(O)c3c(c(CC=C(C)C)c2O1)OC12C(=CC4CC1C(C)(C)OC2(C/C=C(/C)C(=O)O)C4O)C3=O (stereo not given),-3.2%,25.6%,18.8%,44.8%,42.4%,108%,83.2%,24.8%,13.3%,0%
C[C@@H]1CC[C@H]2[C@@H](C)C(=O)O[C@@H]3O[C@@]4(C)CC[C@@H]1[C@]32OO4 [Artemisinine],19.9%,15.5%,13%,-3.8%,28%,156%,126%,98.2%,86.8%,129%
O=P1(N(CCCl)CCCl)NCCCO1 (stereo not given) [Cyclophosphamide monohydrate],-8%,-28.8%,-30%,-10.7%,28.3%,119%,124%,122%,116%,106%
CC1=NCCc2c1[nH]c1cc(O)ccc21,12.6%,14.8%,13%,7.1%,30.3%,113%,121%,110%,107%,96.4%
CCN1C[C@]2(OC(=O)c3ccccc3NC(C)=O)CC[C@H](OC)[C@@]34[C@@H]2C[C@@H]([C@@H]13)[C@@]1(O)C[C@H](OC)[C@H]2C[C@@H]4[C@]1(O)[C@H]2OC,-25.4%,10.5%,-14.7%,15.5%,21.5%,88.3%,104%,104%,131%,154%
CN1CCCCC1c1ccc(-c2cccnc2)nc1 (stereo not given),-12.3%,-12.6%,2.2%,17.6%,19.3%,97.6%,112%,87.8%,106%,74.7%
COc1ccc(CN2CCNCC2)c(OC)c1OC,17%,32.1%,26.1%,10.5%,13.6%,138%,118%,79.9%,99.3%,130%
C=CC[C@]1(O)CC[C@H]2[C@@H]3CCC4=CC(=O)CCC4=C3C=C[C@@]21C,-37.9%,33.3%,-5%,37.7%,13.4%,76.7%,119%,76.6%,111%,109%
O=[N+]([O-])O[C@@H]1CO[C@H]2[C@@H]1OC[C@@H]2O,-43.5%,-19.8%,0.6%,13.4%,12.1%,98.7%,114%,104%,100%,119%
CC1(C)C2CC(=O)[C@]3(C)C(CC[C@@]4(C)[C@H](c5ccoc5)OC(=O)C5OC543)[C@@]2(C)[C@@H](O)C[C@H]1O (stereo not given in full),-10.5%,7.3%,2.3%,-4.5%,-10.7%,80.9%,109%,106%,80.3%,68%
CNC(C)C(O)c1ccccc1 (stereo not given),-7.4%,-10.5%,-18.8%,4.9%,-13.7%,106%,103%,88.8%,109%,83.9%
C[C@]12CC[C@H](O)C[C@@H]1CC[C@@H]1[C@@H]2CC[C@]2(C)C(=O)CC[C@@H]12,-7.4%,1.8%,-6.6%,16.2%,9.6%,132%,101%,78.3%,131%,106%
CC(=O)O[C@H]1C[C@@H]2CC[C@@H]3[C@H](CC[C@@]4(C)[C@H]3C[C@H]([N+]3(C)CCCCC3)[C@@H]4OC(C)=O)[C@@]2(C)C[C@@H]1[N+]1(C)CCCCC1,-39.5%,17.5%,5.6%,49.5%,2.2%,107%,157%,79.7%,176%,130%
C=C[C@H]1CN2CC[C@H]1C[C@H]2[C@H](OC(=O)OCC)c1ccnc2ccc(OC)cc12,15.5%,6.9%,2.9%,6.3%,15.9%,91.3%,83%,87.7%,127%,105%
CN1C[C@H](CNC(=O)OCc2ccccc2)C[C@@H]2c3cccc4c3c(cn4C)C[C@H]21,9.7%,19.9%,7.2%,-6.3%,14.4%,95.2%,126%,110%,62.5%,87.8%
O=c1cccc2n1C[C@@H]1CNC[C@H]2C1,11.2%,26.4%,10.9%,13.8%,11.4%,112%,83.6%,114%,131%,82%
C=CCc1ccc2c(c1)OCO2,-8.2%,6.1%,3.7%,3.4%,3.7%,141%,105%,98.9%,106%,71.8%
CNC(=O)Oc1ccc2c(c1)[C@]1(C)CCN(C)[C@@H]1N2C [(-)-Physostigmine],-13.9%,-10.5%,-18.1%,-4.9%,39.2%,80.9%,86.2%,119%,101%,89.1%
C[C@]12CCC(=O)C=C1C=C[C@@H]1[C@@H]2CC[C@@]2(C)[C@H]1CC[C@@]2(O)CCC(=O)O,5%,-6.4%,-4.9%,-4.3%,28.3%,104%,86.6%,86.2%,126%,120%
